Measurements reported in PubChem BioAssay AID720710 (VTT Finland, 2013).

Test: 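siRNAs sensitising CCNE1-overexpressing U-2 OS cells to replication stress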 (primary screen)
System: human U-2 OS bone cancer cells, parental and a cyclin E (CCNE1) overexpressing line
Knock-down reagent: single siRNA against human genes, 1 µM siRNA in the printed spot mix
Timing: 67 h
Conditions: half the arrays: hydroxyurea 2 mM for 16 h, then 3 h recovery; other arrays untreated
Read-out: 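DNA synthesis measured as imaged EdU uptake per nucleus (DAPI) at 67 h, normalised to subgrid median and given as z-score versus non-targeting controls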
Scale: EdU z-score, cyclin E line, hydroxyurea: higher = more DNA synthesis than non-targeting controls
Shown is one part, drawn at random, of about 1,380 reagents. 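One array per condition without replicates; hydroxyurea arrays received 2 mM for 16 h plus 3 h recovery.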 Reagents against one gene are numbered here. Not all columns of the deposit are shown.

The first 3 entries as a preview:
| gene symbol | reagent no. | EdU z-score, cyclin E line, hydroxyurea |
| --- | --- | --- |
| MCM2 (minichromosome maintenance complex component 2) | 1 | -0.783 |
| MCM2 (minichromosome maintenance complex component 2) | 2 | -0.44 |
| SATB2 (SATB homeobox 2) | 1 | -1.39 |

Results, repeating the preview:
| gene symbol | reagent no. | EdU z-score, cyclin E line, hydroxyurea |
| --- | --- | --- |
| MCM2 (minichromosome maintenance complex component 2) | 1 | -0.783 |
| MCM2 (minichromosome maintenance complex component 2) | 2 | -0.44 |
| SATB2 (SATB homeobox 2) | 1 | -1.39 |
| SATB2 (SATB homeobox 2) | 2 | -0.16 |
| CCDC178 (coiled-coil domain containing 178) | 1 | -0.354 |
| CCDC178 (coiled-coil domain containing 178) | 2 | 1.34 |
| PDS5B (PDS5 cohesin associated factor B) | 1 | -0.619 |
| PDS5B (PDS5 cohesin associated factor B) | 2 | 2.79 |
| UNG (uracil DNA glycosylase) | 1 | -1.02 |
| UNG (uracil DNA glycosylase) | 2 | -0.125 |
| APC (APC regulator of Wnt signaling pathway) | 1 | -1.63 |
| APC (APC regulator of Wnt signaling pathway) | 2 | -0.562 |
| SUV39H1 (SUV39H1 histone lysine methyltransferase) | 1 | -0.851 |
| SUV39H1 (SUV39H1 histone lysine methyltransferase) | 2 | 0.111 |
| NEK11 (NIMA related kinase 11) | 1 | -1.94 |
| NEK11 (NIMA related kinase 11) | 2 | 1.26 |
| NDC80 (NDC80 kinetochore complex component) | 1 | 0.137 |
| NDC80 (NDC80 kinetochore complex component) | 2 | 0.311 |
| NCAPH (non-SMC condensin I complex subunit H) | 1 | -0.279 |
| NCAPH (non-SMC condensin I complex subunit H) | 2 | 0.833 |
| DDB2 (damage specific DNA binding protein 2) | 1 | -1.69 |
| DDB2 (damage specific DNA binding protein 2) | 2 | -0.236 |
| EHMT1 (euchromatic histone lysine methyltransferase 1) | 1 | -1.16 |
| EHMT1 (euchromatic histone lysine methyltransferase 1) | 2 | -0.355 |
